Measured values reported in PubChem BioAssay AID1508600 (Functional Genomics Laboratory (NCATS/FGL), 2020).
Among all 53,000 sequences or so, about 3,700 (7%) were called active.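 Rule for the calls: active = gene knockdowns whose robust z-score for IL-1 alpha signal is at least 2 or at most -2, so actives lie on both sides; inactive = the rest.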 This is one part of the list.

Experiment: Components of the Cytosolic LPS Sensing Pathway: Gene Identification via Genome-wide siRNA Screen;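 note: robust z of the log signal after scaling to non-targeting control siRNA wells of the plate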
Conditions: RAW264.7 macrophages, IL-1a HTRF, actives lie on both sides, screened at 100 nM (by protocol), cells primed 5 h with Pam3CSK4 first
How it was run: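 Supernatant IL-1a by HTRF from RAW264.7 cells primed with Pam3CSK4 (5 hours) and transfected with LipidA (24 hour) after 48h siRNA knockdown at 100 nM; cell viability checked with CellTiter-Glo.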
In the case of CGGUAAACUGGUUUUACUUTT against Otulin, the z-score was inactive: 1.8. For CGGGCUAUGGAGUUGAAGATT against Noa1, the z-score was inactive: -0.0994. For CGAUCUUGACCAAAACAAUTT against Fbxo30, the z-score was inactive: -1.49. For CGACCUUCAAGGCAAUAUUTT against Anapc2, the z-score was inactive: -0.573. In the case of CCCGAAAGACAUGUAUUCGTT against Mrps18b, the z-score was inactive: -0.38. With CGUGGAAAAUGAUCAACACTT against LOC434320 the z-score was inactive: -1.42. For GAGCUCUGCAUUUGGUUAGTT against Fam98b, the z-score was inactive: 0.0904. In the case of CCAGGAAAGAUAUUUGAUGTT against H2-T3, the z-score was inactive: -0.609. For “CCGUCAGGUCUGCAUUCAGTT against Olfr105-ps”, the z-score was inactive: -0.213. With GGUAAAAAGGGAUCACUCUTT against Igfbp7 the z-score was inactive: -0.489. With GGGUCUGCCGUCAUCCAUATT against Acp6 the z-score was inactive: -0.563. For GGCUCAGGCAUUGUAACCATT against Dnm3, the z-score was inactive: -0.177. For GGCAGAGAAUUUUUUGUGGTT against Ddah1, the z-score was inactive: -0.938. For GCCAUGUUUUAGACCUCCUTT against Mms22l, the z-score was inactive: 0.745. For CCGAUGAUCAGAGAAACAGTT against Prkar2b, the z-score was inactive: -1.25. In the case of CGCCCAUGAUGAAUCCUUUTT against Olfr1416, the z-score was inactive: 0.843. For GGAAUACCUUGGAUGGCUATT against Nfe2l1, the z-score was inactive: -0.39. In the case of CGUAACACUGCCUUUGAAUTT against Ube4b, the z-score was inactive: -0.524. With GGCUACGUCGAUGUCUCAATT against Fam171a2 the z-score was inactive: -0.92. For GGUCAAGAGAAUGUACAGATT against Cdc42se2, the z-score was inactive: 1.58. With CCUCAAGUCUAAUUCUCAUTT against Ccdc58 the z-score was inactive: -1.02. With CGGAAACCACCUCUGCUAUTT against Ctnnd2 the z-score was inactive: 0.566. With CCAAGUGACUUUAAGGAUGTT against Pcolce the z-score was inactive: 0.759. With GGAAUUUCGACCAUCGUCUTT against Tmem54 the z-score was inactive: -0.0113. With CCGCUUGAAUCUUAGUGAUTT against Hoxc12 the z-score was inactive: -1.21. For CCAAGAACUGCUCAUUCAGTT against Nrsn2, the z-score was inactive: 1.06. With GGAAUUCCUGUUCGAUUUGTT against Elp1 the z-score was inactive: 1.27. With GGUUCUGAUAUACGUGUUUTT against Rraga the z-score was inactive: 0.057. In the case of GCUGCCUCAUUUCUGGAUGTT against Klk11, the z-score was inactive: 1.1. In the case of GCCUCAUUAUGAGUUGGCATT against Olfr1419, the z-score was active: -2.51. In the case of GGUGAUGGCUGUUCCUUUCTT against Zdhhc2, the z-score was inactive: 0.533. In the case of GCACUCCAAGAUAUUAUGUTT against Tbc1d22b, the z-score was inactive: 0.514. For GGAAGAUGUGUUUCUGCCCTT against Sergef, the z-score was inactive: -1.32. For GGAGAUUGGGAUCAAUUAGTT against Sall3, the z-score was inactive: 0.576. For GGUGACACACUAGUAGACUTT against Sclt1, the z-score was active: 3.47. For GCACUACCGCAUCAUGUAUTT against Csk, the z-score was inactive: -1.24. In the case of CUAUCUGACCAUAAUGAAATT against Olfr1248, the z-score was inactive: 0.000293. In the case of GGCACCUAUCACAUCUAUCTT against Tex21, the z-score was inactive: -0.0614. With GGACAUGGCUUUAUAACCUTT against Dcdc5 the z-score was inactive: 0.256. For CCACGCUCUCAAGGUAUAGTT against Cyp2d22, the z-score was active: -2.81. For GGCAUUCAUGACAAUGGCUTT against Rab1b, the z-score was inactive: -1.89. In the case of CCAUGGACCAAGAUCCAGATT against Rrp12, the z-score was inactive: 1.06. In the case of GCUCGACCAAAAAACAACCTT against Emilin2, the z-score was inactive: 0.831. For GCUCAAAGGACCUCUGAGCTT against Slc29a2, the z-score was inactive: -1.28. For CGAGUGUAAUGUGGUGGAATT against Npm3, the z-score was inactive: 0.211. For “GGUACGAAGGAAAAUUUACTT against 2810407A14Rik”, the z-score was active: 2.72. In the case of “GGACAACUCAAUUCUAAAATT against 4921522P10Rik”, the z-score was inactive: -1.22. In the case of GCCCAACCAGUUUGAAUCUTT against Ubqln4, the z-score was inactive: 1.25. With GGUCUUAAGUUCAGAACCCTT against Natd1 the z-score was inactive: -0.112. With CGAAGGAUUCUUUUGUACUTT against Mib1 the z-score was inactive: 1.18. In the case of GCUUGAUGGACAGUGACGATT against Dhrs3, the z-score was inactive: -1.14. In the case of GGAACUGCAUCUGCACUAATT against Olfr683, the z-score was inactive: 1.53. For GGAGACAUGAUUAAAGCUATT against Ubxn10, the z-score was inactive: -1.31. With GGAUCUCAUACAGAAUCCGTT against Haus4 the z-score was inactive: 0.216. For GGUGAUAACUCCGGGCCAATT against Fam3b, the z-score was active: 2.32. In the case of GGGCUGGAGUCUGAUACAUTT against Rbm5, the z-score was active: 3.39. With GGUCACUAGUGACAAAUGUTT against Fmo4 the z-score was inactive: -0.768. For CCCACUUUCUUUGAUAACUTT against Bcl2l11, the z-score was inactive: 0.585. For GGCAGAUCUAGGAUAGAAGTT against Fbxo44, the z-score was inactive: -0.339. For AAUAACAGGCCGGUCGAGATT against Fbrsl1, the z-score was inactive: 0.615. With GGUCGUAAAAAUUGAAAUCTT against Lhcgr the z-score was inactive: 0.169. With GGCCAAGAUGACCAUCUCUTT against Cspg4 the z-score was inactive: 0.973. With GGUUCAAGAAGUUUUGCUCTT against Tnfrsf9 the z-score was inactive: 0.44. For GCACUGAUGUUAUCCGAAGTT against Ngrn, the z-score was inactive: -0.0153. For CCCACAGUAAAUUCAACGGTT against Gm5069, the z-score was inactive: 0.00754. With CCAAGUAAGGACUAUAGAGTT against Gpatch2 the z-score was inactive: -1.02. With GCAUCGAAGAGUUCAGAAUTT against Gm5136 the z-score was inactive: -0.161. With GGUGGAGAAGGCAUGAAGATT against Amn the z-score was inactive: 0.329.
